Laboratory results as given in the supplement of paper PMC6078165.
Values are relative to the signal before dosing, not to a vehicle control; the signal also falls without drug.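 Fibroblast labels name human fibroblasts: mostly primary ones from tissues such as uterus (C12385, HUF), lung (H6013), bone (Hs27A), adrenal (HADF) and skin (WS1), plus mammary HMF and breast cancer-associated Hs343T. The cancer cells are basal-like or mesenchymal-like triple-negative breast cancer lines. The paper calls a changed response a hit when it shifts by more than 3x the replicate standard deviation. The tissue of the other fibroblasts is not given here.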

Test system: MDAMB436
Experiment: relative JC-1 red fluorescence (viability) vs pre-drug, coculture with fibroblast (fraction); higher = more viable cancer cells
Conditions: 10 µM
Description: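 JC-1 labelled TNBC cells cocultured 1:1 (1,500 cells each) with CellTrace Violet stained primary or stromal fibroblasts in 384-well plates in FluoroBrite medium, treated with one of 42 anticancer drugs at 0.1, 1, 10 or 100 uM. JC-1 red fluorescence (mitochondrial integrity in cancer cells only) was read by plate reader every 8 h for 72 h. Values are normalised to each well's pre-drug value. The stock of one drug was tenfold lower, so its dose labels may be too high.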

CC(C)(C#N)c1cc(Cn2cncn2)cc(C(C)(C)C#N)c1 [Anastrozole]
relative JC-1 red fluorescence
Conditions	8 h	16 h	24 h	32 h	40 h	48 h	56 h	64 h	72 h
coculture fibroblast: C12385	0.8274	0.696	0.668	0.579	0.527	0.491	0.47	0.44	0.428
coculture fibroblast: H6013	0.838	0.74	0.742	0.735	0.721	0.755	0.721	0.71	0.6691
coculture fibroblast: H6019	0.742	0.6892	0.6508	0.564	0.51	0.484	0.443	0.409	0.382
coculture fibroblast: H6076	0.665	0.594	0.588	0.558	0.546	0.531	0.543	0.534	0.529
coculture fibroblast: H6231	0.728	0.64	0.596	0.527	0.506	0.475	0.46	0.436	0.422
coculture fibroblast: HADF	0.865	0.78	0.781	0.755	0.743	0.766	0.704	0.691	0.6466
coculture fibroblast: HCFa	0.798	0.75	0.732	0.706	0.681	0.707	0.641	0.632	0.58
coculture fibroblast: HCPF	0.757	0.618	0.5962	0.51916	0.485	0.4478	0.41826	0.395	0.387
coculture fibroblast: HHSteC	0.828	0.771	0.753	0.719	0.704	0.726	0.657	0.637	0.589
coculture fibroblast: HMF	0.748	0.628	0.586	0.533	0.512	0.471	0.46	0.443	0.443
coculture fibroblast: HPFa	0.882	0.816	0.794	0.767	0.743	0.753	0.663	0.634	0.558
coculture fibroblast: HUF	0.844	0.72	0.683	0.601	0.545	0.512	0.4888	0.4685	0.454
coculture fibroblast: Hs5	0.677	0.625	0.6178	0.5605	0.551	0.503	0.514	0.48	0.465
coculture fibroblast: Hs27A	0.862	0.799	0.789	0.781	0.747	0.811	0.705	0.69	0.602
coculture fibroblast: Hs343T	0.699	0.615	0.57	0.513	0.478	0.438	0.42	0.407	0.4
coculture fibroblast: WS1	0.803	0.696	0.665	0.58	0.542	0.512	0.476	0.433	0.413
